According to patent publication US20200165343A1 (Dana-Farber, published 2020):
Results are given in words; binding and its absence hold for the method and conditions named. Some entries that bind do so weakly or less than the wild type.

Legend:
[1] = biological target: T1, MICA extracellular domain (α1-α3 domains), allele not stated (human) (UniProt Q29983); experiment: ELISA: immobilized MICA, antibody titrated, HRP anti-mouse IgG
T1 sequence (looked up): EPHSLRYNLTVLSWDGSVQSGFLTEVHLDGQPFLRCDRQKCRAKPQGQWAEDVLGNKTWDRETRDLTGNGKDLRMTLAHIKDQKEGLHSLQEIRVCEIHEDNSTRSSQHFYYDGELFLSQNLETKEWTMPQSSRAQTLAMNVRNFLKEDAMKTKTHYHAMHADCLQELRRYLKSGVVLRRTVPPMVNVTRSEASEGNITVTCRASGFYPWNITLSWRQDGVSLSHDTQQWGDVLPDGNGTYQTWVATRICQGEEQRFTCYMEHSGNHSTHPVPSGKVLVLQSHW

[2] = biological target: T1, MICA extracellular domain (α1-α3 domains), allele not stated (human); experiment: fluorescence ELISA (DELFIA): coated antigen, mouse mAb at 1 µg/ml, biotinylated anti-mouse IgG + streptavidin-Europium
[3] = biological target: T1, MICA extracellular domain (α1-α3 domains), allele not stated (human); experiment: fluorescence-based ELISA, immobilized antigen
[4] = biological target: T1, MICA extracellular domain (α1-α3 domains), allele not stated (human); experiment: fluorescence ELISA (DELFIA): immobilized MICA extracellular domain, antibody titrated, biotinylated anti-mouse IgG + Europium-streptavidin
[5] = biological target: T1, MICA extracellular domain (α1-α3 domains), allele not stated (human); experiment: ELISA on immobilized MICA

Measured: binding

B1: mAb 7C6 (parental murine IgG2b monoclonal antibody specific for the MICA/B α3 domain) (antibody, V domains shown)
VH: QIQLVQSGPELKKPGETVKVSCKASGYMFTNYAMNWVKQAPEKGLKWMGWINTHTGDPTYADDFKGRIAFSLETSASTAYLQINNLKNEDTATYFCVRTYGNYAMDYWGQGTSVTVSS
VL: DIQMTQTTSSLSASLGDRVTISCSASQDISNYLNWYQQKPDGTVKLLIYDTSILHLGVPSRFSGSGSGTDYSLTISNLEPEDIATYYCQQYSKFPRTFGGGTTLEIK
notes: Mouse hybridoma antibody; also called 7C6 mAb; 7C6-mIgG2b
binds: [1] | [2] | [3] | [4] | [5]
